According to patent US8715706B2, “Methods and devices for delivery of pharmaceutical agents within orifices of the body” (RDD Pharma, Ltd., priority 2009, dated 2014):

Assay: pK studies, rectal rate of absorption using drug release system
Conditions: rectally, drug release system of Example 1, FIGS. 14 and 15
From the text: Accordingly, it is intended to embrace all such alternatives, modifications and variations that fall within the spirit and broad scope of the appended claims.

CN1C(=O)CN=C(c2ccccc2)c2cc(Cl)ccc21 [Diazepam]
rate of absorption: relatively quickly absorbed
